{
  "source": "paper PMC6894571",
  "biological_target": "T1, atOma1::FLAG (Arabidopsis thaliana) (UniProt Q9FLI5)",
  "T1 sequence": "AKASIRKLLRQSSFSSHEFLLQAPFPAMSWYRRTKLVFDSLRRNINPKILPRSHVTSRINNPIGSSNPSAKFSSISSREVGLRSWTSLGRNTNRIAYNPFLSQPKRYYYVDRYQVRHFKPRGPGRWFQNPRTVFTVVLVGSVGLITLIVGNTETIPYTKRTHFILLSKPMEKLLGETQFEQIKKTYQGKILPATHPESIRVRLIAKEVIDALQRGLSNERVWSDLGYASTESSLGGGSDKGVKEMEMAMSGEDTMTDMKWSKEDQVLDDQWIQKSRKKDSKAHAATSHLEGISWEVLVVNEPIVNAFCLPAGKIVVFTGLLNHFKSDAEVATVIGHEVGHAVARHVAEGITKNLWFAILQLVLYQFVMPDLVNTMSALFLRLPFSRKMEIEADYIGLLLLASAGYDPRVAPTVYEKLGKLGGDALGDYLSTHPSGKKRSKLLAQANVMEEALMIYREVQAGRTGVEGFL",
  "assay": "co-IP; anti-DDDDK (FLAG) magnetic beads; digitonin-solubilised crude mitochondria of transgenic CMS sugar beet suspension cells; 1x PBS, 0.1% digitonin, overnight at 4°C; precipitates blotted with anti-FLAG and anti-preSATP6",
  "note": "Results are given in words; binding and its absence hold for the method and conditions named. Binding seen in cells or lysates may run through a third protein. Tags and fused reporters may be left off the sequences shown.",
  "data": [
    {"substance": "preSATP6 protein", "values": [
      {"measurement": "binding", "result": "no binding"}
    ]}
  ]
}
